No constants are given. Whether binding was seen depends on the method and setting. Some entries that bind do so weakly or less than the wild type. For some assays here: Where a sequence is shown, tags or fusion partners need not be part of it.
What was measured:
[1] = target: ^17–148Ump1-6His (S. cerevisiae) (UniProt P38293); test: fluorescence microscopy-based on-bead binding assay; Ump1-6His or ^17–148Ump1-6His from E. coli extracts bound to Ni-NTA beads and washed (20 mM imidazole); extracts with mNeonGreen fusion proteins, adjusted by fluorescence, added 1 h, 4 °C; beads imaged, quantified with Fiji (n = 5), empty vector background subtracted; only the target purified
[2] = target: T1, full-length Ump1-6His (S. cerevisiae) (UniProt P38293); test: as above
T1 sequence: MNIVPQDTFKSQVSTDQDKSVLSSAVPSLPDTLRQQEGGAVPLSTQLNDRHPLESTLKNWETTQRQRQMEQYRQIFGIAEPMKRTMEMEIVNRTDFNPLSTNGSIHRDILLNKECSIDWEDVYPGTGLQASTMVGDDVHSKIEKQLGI

Amino acid sequences for entries named in this document (tags omitted). Residues count along the entry.
UniProt P30657, residues 1-33: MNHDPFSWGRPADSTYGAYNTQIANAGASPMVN

Substance: β7 propeptide (^1–33β7) fused to mNeonGreen and 2HA (from UniProt P30657 1-33) (domain or fragment)
- binding [1]: no binding
- binding [2]: binds

Source: publication PMC8961534, “Interaction with the Assembly Chaperone Ump1 Promotes Incorporation of the β7 Subunit into Half-Proteasome Precursor Complexes Driving Their Dimerization” (Biomolecules, 2022)
